Some of these results come from one statement about several compounds together.
How the values were obtained:
Magnaporthe grisea = format: in vivo; details: 250 ppm sprayed (2.5 ml/pot) on rice (Sachikaze); disease development 6 to 10 days after inoculation
Puccinia recondita = assay: Test Example E: Brown rust on wheat; format: in vivo; details: 250 ppm sprayed (2.5 ml/pot) on wheat (Norin 61); disease development 7 to 10 days after inoculation
Botrytis cinerea = assay: Test Example B: Gray mold on tomato; details: 250 ppm sprayed (2.5 ml/pot) on tomato (Oogata Fukuju); disease development 2 to 3 days after inoculation
Plasmopara viticola = assay: Test Example G: Downy mildew on vine; details: 250 ppm sprayed (2.5 ml/pot) on grape (Neomuscat); disease development 7 to 10 days after inoculation
[1] = system: Colletotrichum orbiculare; assay: Test Example H: Anthracnose on cucumber; details: 250 ppm sprayed (2.5 ml/pot) on cucumber (Sagami Hanjiro); disease development 6 to 10 days after inoculation
[2] = system: Blumeria graminis f. sp. hordei; assay: Test Example D: Powdery mildew on barley; details: 250 ppm sprayed (2.5 ml/pot) on barley (Akashinriki); disease development 6 to 10 days after inoculation
Alternaia brassicicola = assay: Test Example C: Alternaria sooty spot on cabbage; details: 250 ppm sprayed (2.5 ml/pot) on cabbage (Shikidori); disease development 2 to 3 days after inoculation

Measured: control value

O=c1c(Cl)cc(-c2ccccc2Br)c(-c2ccccc2)n1CC(F)F [compound 533]
> 50%: all assays above

COc1ccc(-c2c(-c3cc(F)ccc3Cl)ccc(=O)n2C)cc1 [compound 51]
> 50%: all assays above

CCn1c(-c2ccc(OC)cc2)c(-c2cc(F)ccc2Cl)cc(Cl)c1=O [compound 50]
> 50%: all assays above

CCn1c(-c2ccc(F)cc2)c(-c2cc(F)cc(F)c2Br)cc(Br)c1=O [compound 133]
> 50%: all assays above

O=c1ccc(-c2ccccc2Cl)c(-c2ccc(F)cc2)n1CC(F)(F)F [compound 411]
not listed: Botrytis cinerea
> 50%: all other assays above

O=c1ccc(-c2ccccc2Cl)c(-c2ccccc2)n1CC(F)F [compound 488]
> 50%: all assays above

Cc1ccc(C2=C(c3ccccc3Cl)CCC(=O)N2C)cc1 [compound 116]
not listed: Puccinia recondita | Alternaia brassicicola
> 50%: all other assays above

N#Cc1ccc(-c2c(-c3ccccc3Cl)cc(Cl)c(=O)n2CC(F)F)cc1 [compound 338]
> 50%: all assays above

CCn1c(-c2ccccc2)c(-c2ccccc2Cl)ccc1=O [compound 109]
not listed: Alternaia brassicicola
> 50%: all other assays above

Cc1ccccc1-c1cc(Br)c(=O)n(CC(F)F)c1-c1ccccc1 [compound 494]
> 50%: all assays above

CCn1c(-c2cc(F)c(F)c(F)c2)c(-c2cc(F)ccc2Cl)ccc1=O [compound 169]
> 50%: all assays above

O=c1c(Cl)cc(-c2cc(F)ccc2Cl)c(-c2ccc(F)cc2)n1CC(F)F [compound 450]
> 50%: all assays above

O=C1CCC(c2cc(F)cc(F)c2Cl)=C(c2ccccc2)N1CC(F)F [compound 56]
> 50%: Magnaporthe grisea | Plasmopara viticola | [2]

CCN1C(=O)CCC(c2cc(Cl)ccc2Cl)=C1c1ccc(F)cc1 [compound 414]
not listed: Botrytis cinerea | Alternaia brassicicola
> 50%: all other assays above

CCN1C(=O)CCC(c2cc(F)ccc2Br)=C1c1ccc(F)cc1 [compound 511]
not listed: Alternaia brassicicola
> 50%: all other assays above

COc1ccc(-c2c(-c3cc(F)ccc3Cl)cc(Br)c(=O)n2C)cc1 [compound 53]
not listed: [2]
> 50%: all other assays above

COc1ccc(Cl)c(-c2cc(Cl)c(=O)n(C)c2-c2ccccc2)c1 [compound 91]
not listed: [2]
> 50%: all other assays above

CCN1C(=O)CCC(c2cc(F)ccc2C)=C1c1ccccc1 [compound 465]
> 50%: Puccinia recondita | Botrytis cinerea | Plasmopara viticola | [2]

CCn1c(-c2ccc(F)cc2)c(-c2cccc(OCC#N)c2Cl)cc(Cl)c1=O [compound 264]
not listed: [2]
> 50%: all other assays above

Cn1c(-c2ccc(C#N)cc2)c(-c2ccccc2Cl)cc(Cl)c1=O [compound 334]
not listed: [2]
> 50%: all other assays above

CCn1c(-c2ccc(F)cc2)c(-c2cc(F)ccc2Br)ccc1=O [compound 513]
not listed: [2]
> 50%: all other assays above

CCN1C(=O)CCC(c2ccccc2Cl)=C1c1ccc(C)cc1 [compound 117]
not listed: Botrytis cinerea | Alternaia brassicicola
> 50%: all other assays above

COc1ccc(-c2c(-c3cc(F)cc(F)c3Cl)cc(Br)c(=O)n2C)cc1 [compound 39]
not listed: [2]
> 50%: all other assays above

CCn1c(-c2ccc(OC)cc2)c(-c2cc(OC)ccc2Cl)ccc1=O [compound 72]
not listed: [2]
> 50%: all other assays above

Cn1c(-c2ccc(C#N)cc2)c(-c2ccccc2Cl)cc(Br)c1=O [compound 331]
not listed: [2]
> 50%: all other assays above

COc1ccc(-c2c(-c3cccc(OC)c3Cl)cc(Cl)c(=O)n2C)cc1 [compound 134]
not listed: [2]
> 50%: all other assays above

CCn1c(-c2ccc(C)cc2)c(-c2ccccc2Cl)ccc1=O [compound 143]
not listed: [1] | Alternaia brassicicola
> 50%: all other assays above

CCn1c(-c2ccc(C#N)cc2)c(-c2ccccc2Cl)cc(I)c1=O [compound 335]
not listed: [2]
> 50%: all other assays above

CCn1c(-c2ccc(F)cc2)c(-c2ccc(Br)cc2Cl)cc(F)c1=O [compound 401]
not listed: [2]
> 50%: all other assays above

CCN1C(=O)CCC(c2ccccc2Br)=C1c1ccc(F)cc1 [compound 519]
> 50%: Puccinia recondita | Botrytis cinerea | Plasmopara viticola | [2]

COc1ccc(-c2c(-c3cc(OC)ccc3Cl)ccc(=O)n2C)cc1 [compound 75]
not listed: [2]
> 50%: all other assays above

Cn1c(-c2ccc(F)cc2)c(-c2ccccc2Br)ccc1=O [compound 239]
not listed: [2]
> 50%: all other assays above

CCn1c(-c2ccc(F)cc2)c(-c2cc(Cl)ccc2Cl)cc(Cl)c1=O [compound 417]
not listed: [2]
> 50%: all other assays above

From US11051513B2, “Pyridone compounds and agricultural and horticultural fungicides containing the same as active ingredients” (MITSUI CHEMICALS AGRO, INC., priority 2017, dated 2021)
